Values from PubChem BioAssay AID1508597 (Cure First, 2020)
This is a random part of the about 2,100 reagents, in one setting of the screen. 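Calls flag viability under 80% in either arm, not effects specific to rucaparib; the reference for percent is not stated.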 A reagent listed more than once was tested more than once; the source does not tell the runs apart. No sequences are given here. Not stated in the record: the 100% reference.

Aim: 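Genes whose silencing sensitises or protects ovarian cancer cells against rucaparib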 (primary screen)
System: human ovarian carcinoma lines grown from tumours: OCI-P5x (papillary serous) and OCI-C5x (clear cell)
Reagents: siRNA pool against human genes, 1.25 pmol siRNA per well
Time to read-out: 72 h or 96 h, depending on the cell culture
Challenge: rucaparib 20 µM (about IC30) or vehicle, present until read-out
Rucaparib or vehicle: Vehicle
Cell line: OCI-P5x (serous)
Detection: 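ATP luminescence measured at 72 or 96 h according to the culture, then normalised and expressed as percent viability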
Scale: viability, normalised: higher = more viable cells remaining
Call rule: 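a well counts as a hit if its normalised viability is under 80 percent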
Meaning of the calls: active = viability under 80%; inactive = viability 80% or more

{"target gene": "GDAP2", "technical replicate": "1", "viability, normalised (%)": 52.2, "call": "active"}
{"target gene": "GDAP2", "technical replicate": "2", "viability, normalised (%)": 67.2, "call": "active"}
{"target gene": "GDAP2", "technical replicate": "3", "viability, normalised (%)": 66.6, "call": "active"}
{"target gene": "TCF20", "technical replicate": "1", "viability, normalised (%)": 37.9, "call": "active"}
{"target gene": "TCF20", "technical replicate": "2", "viability, normalised (%)": 53.8, "call": "active"}
{"target gene": "TCF20", "technical replicate": "3", "viability, normalised (%)": 59.3, "call": "active"}
{"target gene": "TRIM28", "technical replicate": "1", "viability, normalised (%)": 79.5, "call": "active"}
{"target gene": "TRIM28", "technical replicate": "1", "viability, normalised (%)": 70.8, "call": "active"}
{"target gene": "TRIM28", "technical replicate": "2", "viability, normalised (%)": 99.7, "call": "inactive"}
{"target gene": "TRIM28", "technical replicate": "2", "viability, normalised (%)": 87.4, "call": "inactive"}
{"target gene": "TRIM28", "technical replicate": "3", "viability, normalised (%)": 85.6, "call": "inactive"}
{"target gene": "TRIM28", "technical replicate": "3", "viability, normalised (%)": 69.5, "call": "active"}
{"target gene": "PDE4D", "technical replicate": "1", "viability, normalised (%)": 33.9, "call": "active"}
{"target gene": "PDE4D", "technical replicate": "2", "viability, normalised (%)": 54.5, "call": "active"}
{"target gene": "PDE4D", "technical replicate": "3", "viability, normalised (%)": 53.4, "call": "active"}
{"target gene": "SULT1A2", "technical replicate": "1", "viability, normalised (%)": 57.1, "call": "active"}
{"target gene": "SULT1A2", "technical replicate": "2", "viability, normalised (%)": 52, "call": "active"}
{"target gene": "SULT1A2", "technical replicate": "3", "viability, normalised (%)": 47.4, "call": "active"}
{"target gene": "SP140", "technical replicate": "1", "viability, normalised (%)": 59.1, "call": "active"}
{"target gene": "SP140", "technical replicate": "2", "viability, normalised (%)": 48.9, "call": "active"}
{"target gene": "SP140", "technical replicate": "3", "viability, normalised (%)": 61.6, "call": "active"}

Look-ups from above:
Entry for GDAP2, technical replicate 3 under “call”: active
SP140, technical replicate 3, call: active
For “viability, normalised (%)”, PDE4D, technical replicate 2 shows 54.5
